From PubChem BioAssay AID328 (DTP/NCI, 2004) come the findings set out here.

Each structure is given as a SMILES string. The list shows only some results of the screen, not a fair sample: it gathers tests that were run many times, whatever their T/C, doses with no T/C, and many T/C values between a quarter and a half above the control. Further doses and runs are listed elsewhere. T/C is the treated group as % of the vehicle group. Some doses have a count of surviving animals in place of a T/C: the source files T/C as zero there, which appears to mark a toxic dose or a test without result, not a measured value. Some doses without a T/C left all or most animals alive at the check, yet need not have been tolerated: survival well below the control is almost never listed, so the zero probably covers shortened survival too. Survivors were counted at the toxicity check, usually on the fifth day, unless a day is given; later deaths do not show. Schedule codes are those of the source, read here as Q, the interval in days (D) or hours (H), X, the number of doses. Where survival is the endpoint, the PubChem record calls one and a half times the control and up active, and a quarter to a half above the control has no call in these data; cut-offs in other NCI protocols can differ. Some entries were tested several times; their values stand side by side, smallest first. Some T/C values are followed by the survivors on the day toxicity was checked, most often the fifth; without a count, all were alive then.

The test has as its system BDF1 mice, P388 leukemia ip, median survival T/C. Briefly: NCI In Vivo Anticancer Drug Screen. Data for tumor model P388 Leukemia (intraperitoneal) in B6D2F1 (BDF1) mice. The settings on record: T/C endpoint: median survival time, higher T/C = longer survival. The procedure, abridged:
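Survival ratio, drug arm over vehicle arm, in mice with a transplanted tumour.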

The mark [1] stands for this setting: dose: 100.0 mg/kg/injection, schedule: Q01DX009 (ip), vehicle: saline with Tween-80.
The mark [2] stands for this setting: dose: 200.0 mg/kg/injection, schedule: Q01DX009 (ip), vehicle: saline with Tween-80.
Where [3] appears, read: dose: 25.0 mg/kg/injection, schedule: Q01DX009 (ip), vehicle: other.
[4] abbreviates: dose: 50.0 mg/kg/injection, schedule: Q01DX009 (ip), vehicle: other.

Take `CC1(C)N=C(N)N=C(N)N1c1cccc(OCCOc2cccc(NC(=O)CBr)c2)c1`: the T/C by setting is: (dose: 20.0 mg/kg/injection, schedule: Q01DX009 (ip), vehicle: saline) 100 [5 of 6 alive], 110, 120 [5 of 6 alive], 135 % of control; (dose: 30.0 mg/kg/injection, schedule: Q01DX009 (ip), vehicle: saline) 125 [5 of 6 alive] and 135 % of control [5 of 6 alive]. Moreover, the survivor count by setting is: (dose: 20.0 mg/kg/injection, schedule: Q04DX003 (ip), vehicle: saline) 3 of 6; (dose: 40.0 mg/kg/injection, schedule: Q01DX009 (ip), vehicle: saline) 1 of 6; (dose: 40.0 mg/kg/injection, schedule: Q04DX003 (ip), vehicle: saline) 3 of 6; (dose: 70.0 mg/kg/injection, schedule: Q01DX009 (ip), vehicle: saline) 1 of 6; (dose: 80.0 mg/kg/injection, schedule: Q04DX003 (ip), vehicle: saline) 0 of 6; (dose: 105.0 mg/kg/injection, schedule: Q01DX009 (ip), vehicle: saline) 0 of 6.

Turning to `CCN1/C(=C/C=C/C=C/c2sc3ccccc3[n+]2CC)Sc2ccccc21`, the T/C (dose: 0.19 mg/kg/injection, schedule: Q01DX009 (ip), vehicle: suspension in saline) is 139 % of control and the T/C (dose: 0.38 mg/kg/injection, schedule: Q01DX009 (ip), vehicle: suspension in saline) is 141 % of control [4 of 6 alive]. Moreover, the survivor count reads like this: (dose: 0.75 mg/kg/injection, schedule: Q01DX009 (ip), vehicle: suspension in saline) 0 of 6; (dose: 1.5 mg/kg/injection, schedule: Q01DX009 (ip), vehicle: suspension in saline) 0 of 6.

`CC(C)(C)OC(=O)NC(CCCCNC(=O)OCc1ccccc1)C(=O)NC(CCCCNC(=O)OCc1ccccc1)C(=O)NC(CCCCNC(=O)OCc1ccccc1)C(=O)OCc1ccccc1` (configuration not stated): the survivor count (dose: 100.0 mg/kg/injection, schedule: Q01DX005 (ip), vehicle: saline with Tween-80) is recorded as 5 of 5.

`CC1CC(C)(O)CC(C(O)CC2CC(=O)NC(=O)C2)C1=O` (configuration not stated): the T/C was 136 % of control (dose: 0.1 mg/kg/injection, schedule: Q01DX010 (ip), vehicle: saline); 140 % of control (dose: 0.2 mg/kg/injection, schedule: Q01DX010 (ip), vehicle: saline); 138 % of control (dose: 0.72 mg/kg/injection, schedule: Q04DX003 (ip), vehicle: saline); 140 % of control (dose: 0.78 mg/kg/injection, schedule: Q04DX003 (ip), vehicle: saline); 148 % of control [7 of 8 alive] (dose: 1.0 mg/kg/injection, schedule: Q04DX003 (ip), vehicle: saline); 143 % of control (dose: 1.3 mg/kg/injection, schedule: Q04DX003 (ip), vehicle: saline). In addition, the T/C (dose: 2.0 mg/kg/injection, schedule: Q04DX003 (ip), vehicle: saline) is 148 % of control; the T/C (dose: 2.16 mg/kg/injection, schedule: Q04DX003 (ip), vehicle: saline) is 144 % of control; the T/C (dose: 173.0 micrograms/kg/injection, schedule: Q01DX009 (ip), vehicle: saline) was 142 [7 of 8 alive] and 147 % of control; the T/C (dose: 1300.0 micrograms/kg/injection, schedule: Q04DX003 (ip), vehicle: saline) was 136 % of control; the T/C (dose: 1300.0 micrograms/kg/injection, schedule: Q04DX003 (sc), vehicle: saline) was 127 % of control; the T/C (dose: 2160.0 micrograms/kg/injection, schedule: Q04DX003 (sc), vehicle: saline) is 133 % of control. In addition, the survivor count reads like this: (dose: 4.0 mg/kg/injection, schedule: Q04DX003 (ip), vehicle: saline) 4 of 8; (dose: 8.0 mg/kg/injection, schedule: Q04DX003 (ip), vehicle: saline) 3 of 8; (dose: 10.0 mg/kg/injection, schedule: Q01DX001 (ip), vehicle: saline) 4 of 8; (dose: 480.0 micrograms/kg/injection, schedule: Q01DX009 (ip), vehicle: saline) 6 of 8; (dose: 800.0 micrograms/kg/injection, schedule: Q01DX009 (ip), vehicle: saline) 7 of 8; (dose: 2160.0 micrograms/kg/injection, schedule: Q04DX003 (ip), vehicle: saline) 3 of 8. In addition, the survivor count (dose: 3600.0 micrograms/kg/injection, schedule: Q04DX003 (sc), vehicle: saline) was 8 of 8.

In the case of `O=C(Nc1ccc(NC(=O)c2ccc(C3=NCCCN3)cc2)cc1)c1ccc(C2=NCCCN2)cc1`, the T/C (dose: 33.0 mg/kg/injection, schedule: Q04DX003 (ip), vehicle: saline with Tween-80) is 146 % of control.

With `NNC(=O)CCc1ccccc1Br`, under setting [1], the T/C is 145 % of control.

Consider `NNc1nncn2c1cc1ccccc12`, for which, under setting [2], the survivor count is 2 of 6.

Regarding `Cc1cccc(-n2c(CC#N)n[nH]c2=S)c1`, the survivor count under setting [1] was 6 of 6.

For `COC(OC)c1[nH]c(=O)[nH]c(=O)c1F.[Hg]`, the survivor count is, setting by setting: (dose: 100.0 mg/kg/injection, schedule: Q04DX003 (ip), vehicle: saline) 0 of 6; (dose: 200.0 mg/kg/injection, schedule: Q04DX003 (ip), vehicle: saline) 0 of 6; (dose: 400.0 mg/kg/injection, schedule: Q04DX003 (ip), vehicle: saline) 0 of 6.

Turning to `CCC[CH2][Sn-]([CH2]CCC)([CH2]CCC)[O]c1cc(Cl)c(Cl)cc1Cl`, the survivor count is 0 of 6 (dose: 12.5 mg/kg/injection, schedule: Q01DX009 (ip), vehicle: other); 0 of 6 under setting [3]; 0 of 6 under setting [4]; 0 of 6 (dose: 100.0 mg/kg/injection, schedule: Q01DX009 (ip), vehicle: other); 0 of 6 (dose: 200.0 mg/kg/injection, schedule: Q01DX009 (ip), vehicle: other); 0 of 6 (dose: 400.0 mg/kg/injection, schedule: Q01DX009 (ip), vehicle: other).

`Cc1cc(N(CCCl)CCCl)ccc1N=Nc1ccccc1C(=O)[O-].Cc1cc(N(CCCl)CCCl)ccc1N=Nc1ccccc1C(=O)[O-].[Cu+2]`: where the note is “dose: 37.5 mg/kg/injection, schedule: Q04DX003 (ip), vehicle: saline with Tween-80”, the T/C was 135 % of control.

On to `Cc1cc2nc[nH]c(=O)n2n1`, for which the survivor count under setting [2] is 4 of 6.

In the case of `Nc1nc(N)c2cc(CNc3ccc(C(=O)NC(CC(=O)O)C(=O)O)cc3)ccc2n1` (configuration not stated), the T/C is, setting by setting: (dose: 0.17 mg/kg/injection, schedule: Q01DX009 (ip), vehicle: saline) 125 % of control; (dose: 0.25 mg/kg/injection, schedule: Q01DX009 (ip), vehicle: saline) 137 and 141 % of control; (dose: 1.0 mg/kg/injection, schedule: Q01DX009 (ip), vehicle: saline) 141 % of control; (dose: 18.75 mg/kg/injection, schedule: Q04DX003 (ip), vehicle: saline sonified) 133 % of control. Moreover, the survivor count is 6 of 6 (dose: 2.0 mg/kg/injection, schedule: Q01DX009 (ip), vehicle: saline); 6 of 6 (dose: 4.0 mg/kg/injection, schedule: Q04DX003 (ip), vehicle: saline sonified); 4 of 6 (dose: 8.0 mg/kg/injection, schedule: Q04DX003 (ip), vehicle: saline sonified); 5 of 6 (dose: 12.5 mg/kg/injection, schedule: Q01DX009 (ip), vehicle: saline); 4 of 6 (dose: 25.0 mg/kg/injection, schedule: Q01DX009 (ip), vehicle: saline); 6 of 6 (dose: 50.0 mg/kg/injection, schedule: Q04DX003 (ip), vehicle: saline sonified).

Regarding `CC(=O)N1C(=O)N(Cl)C(=O)C1(C)c1cccs1` (configuration not stated), the T/C under setting [1] is 125 % of control. In addition, the survivor count by setting is: (dose: 166.0 mg/kg/injection, schedule: Q01DX009 (ip), vehicle: saline with Tween-80) 3 of 6; (dose: 400.0 mg/kg/injection, schedule: Q01DX009 (ip), vehicle: saline with Tween-80) 3 of 6.

As to `CCOC(=O)C1CC(=O)c2ccccc2C1` (configuration not stated), the survivor count reads like this: under setting [3], 6 of 6; under setting [4], 6 of 6.
